From paper PMC5333361
Results are given in words; binding and its absence hold for the method and conditions named. Binding seen in cells or lysates may run through a third protein. Some binding calls cover weakened binding; strength is not graded here. Sequences can lack the tags named with a protein.

The chains behind the UniProt entries cited, without tags or fusion partners.
UniProt P46937: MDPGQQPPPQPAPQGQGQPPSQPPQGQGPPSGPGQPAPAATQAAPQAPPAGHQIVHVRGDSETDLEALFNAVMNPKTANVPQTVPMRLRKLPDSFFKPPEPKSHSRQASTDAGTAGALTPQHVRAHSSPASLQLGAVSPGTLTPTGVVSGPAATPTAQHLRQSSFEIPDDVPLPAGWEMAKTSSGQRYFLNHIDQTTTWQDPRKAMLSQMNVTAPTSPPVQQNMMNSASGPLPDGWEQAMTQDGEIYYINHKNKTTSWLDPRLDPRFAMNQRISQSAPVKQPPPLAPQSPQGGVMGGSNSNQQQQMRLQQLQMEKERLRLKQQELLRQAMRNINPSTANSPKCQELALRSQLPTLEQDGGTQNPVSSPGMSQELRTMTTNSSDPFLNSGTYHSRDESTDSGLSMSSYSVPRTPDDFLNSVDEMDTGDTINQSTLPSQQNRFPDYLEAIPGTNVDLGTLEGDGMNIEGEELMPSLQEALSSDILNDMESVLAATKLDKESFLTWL

Target: T1, Amotl1-HA (Angiomotin-like 1, HA-tagged) (UniProt Q9D4H4)
T1 sequence: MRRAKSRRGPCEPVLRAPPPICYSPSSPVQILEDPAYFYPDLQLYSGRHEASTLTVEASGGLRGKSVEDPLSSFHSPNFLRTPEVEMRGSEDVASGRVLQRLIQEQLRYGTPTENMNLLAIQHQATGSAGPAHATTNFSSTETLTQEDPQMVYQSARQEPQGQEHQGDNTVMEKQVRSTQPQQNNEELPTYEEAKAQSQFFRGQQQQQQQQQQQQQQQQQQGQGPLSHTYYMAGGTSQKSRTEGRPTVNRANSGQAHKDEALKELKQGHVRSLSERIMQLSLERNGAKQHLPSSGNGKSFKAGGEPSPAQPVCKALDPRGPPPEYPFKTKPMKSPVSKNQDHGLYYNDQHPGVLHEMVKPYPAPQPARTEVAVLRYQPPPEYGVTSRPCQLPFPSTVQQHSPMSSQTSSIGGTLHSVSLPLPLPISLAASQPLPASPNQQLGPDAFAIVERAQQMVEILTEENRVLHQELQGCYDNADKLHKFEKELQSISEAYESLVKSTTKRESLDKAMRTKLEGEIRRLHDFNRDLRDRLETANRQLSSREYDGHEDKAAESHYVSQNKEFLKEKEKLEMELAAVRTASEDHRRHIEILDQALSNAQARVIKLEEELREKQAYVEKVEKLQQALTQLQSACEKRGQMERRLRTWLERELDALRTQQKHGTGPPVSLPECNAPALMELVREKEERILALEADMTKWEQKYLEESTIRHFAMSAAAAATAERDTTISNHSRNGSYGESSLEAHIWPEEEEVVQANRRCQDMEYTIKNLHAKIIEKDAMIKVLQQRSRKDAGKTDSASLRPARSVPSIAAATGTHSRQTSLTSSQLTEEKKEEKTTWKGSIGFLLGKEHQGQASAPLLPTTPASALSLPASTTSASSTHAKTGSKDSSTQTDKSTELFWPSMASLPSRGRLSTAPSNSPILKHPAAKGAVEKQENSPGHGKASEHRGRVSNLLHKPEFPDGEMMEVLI
Assay: co-IP; HEK293 cells transfected with Amotl1-HA and Flag-Fat4-ΔECD, cultured 48 h; lysis buffer 150 mM NaCl, 5 mM EDTA, 10 mM Tris pH 7.5, 10% glycerol, 1% NP-40; IP with anti-HA (Roche 3F10) on protein G magnetic beads; isotype IgG as negative control; immunoblot

- binding: binds
Substance: Yap1 (from UniProt P46937 1-504)
